{"source": "PubChem BioAssay AID504791 (Drosophila RNAi Screening Center, 2011)", "test": "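Factors in Argonaute-based small RNA production and activity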 (primary screen)", "system": "Drosophila S2-derived reporter cells", "knock-down reagent": "long dsRNA against Drosophila genes, about 150-250 ng dsRNA per well (siRNA assay); about 80-120 ng (miRNA assay)", "duration": "about 5 days (siRNA assay); about 4 days (miRNA assay)", "conditions": "copper sulfate induction of reporters: 25 µM (siRNA assay); 200 mM stated (miRNA assay), 1-2 days before reading", "measurement": "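Per-well ratio of Renilla over firefly light, expressed relative to that plate's average ratio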", "units": "stable assay Renilla, run 1 in luminescence; stable assay firefly, run 1 in luminescence", "rule for the call": "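a well was a first-pass pick when its plate-scaled ratio rose above 1.5 (siRNA assay) or 1.6 (miRNA assay), or dropped below 0.6; a gene counted only if two separate dsRNAs agreed on retest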", "note": "The screen tested about 23,000 reagents; below is an unselected part of those that have a named target and a result. Over the whole deposit, 199 (0.86%) got an active call. 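Plate-scaled ratios behind the calls are not deposited; printed light signals are raw; many rows marked increased or decreased are still called inactive.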 Reagents against one gene are numbered here. Names joined by + are all predicted targets of the reagent. No sequences are given here. Not given: the direction of the score."}
{"gene knocked down": "Polr1H", "reagent": 1, "stable assay Renilla, run 1": 9434, "stable assay firefly, run 1": 4.61e5, "outcome": "inactive"}
{"gene knocked down": "Phf5a", "reagent": 1, "stable siRNA reporter change": "reporter ratio lowered past the hit cutoff", "miRNA reporter change": "reporter ratio lowered past the hit cutoff", "stable assay Renilla, run 1": 7306, "stable assay firefly, run 1": 8.00e5, "outcome": "active"}
{"gene knocked down": "CG42568 + DnaJ-60", "reagent": 1, "stable assay Renilla, run 1": 5774, "stable assay firefly, run 1": 2.89e5, "outcome": "inactive"}
{"gene knocked down": "CG42568 + DnaJ-60", "reagent": 2, "stable assay Renilla, run 1": 1.99e5, "stable assay firefly, run 1": 1.31e6, "outcome": "inactive"}
{"gene knocked down": "Hacd2", "reagent": 1, "stable assay Renilla, run 1": 6826, "stable assay firefly, run 1": 5.74e5, "outcome": "inactive"}
{"gene knocked down": "csul", "reagent": 1, "stable assay Renilla, run 1": 7916, "stable assay firefly, run 1": 3.39e5, "outcome": "inactive"}
{"gene knocked down": "Muc4B", "reagent": 1, "stable assay Renilla, run 1": 5011, "stable assay firefly, run 1": 2.85e5, "outcome": "inactive"}
{"gene knocked down": "Muc4B", "reagent": 2, "stable assay Renilla, run 1": 4351, "stable assay firefly, run 1": 2.31e5, "outcome": "inactive"}
{"gene knocked down": "CG13766", "reagent": 1, "stable assay Renilla, run 1": 7324, "stable assay firefly, run 1": 3.41e5, "outcome": "inactive"}
{"gene knocked down": "NetB", "reagent": 1, "stable assay Renilla, run 1": 8275, "stable assay firefly, run 1": 4.51e5, "outcome": "inactive"}
{"gene knocked down": "Polr3I", "reagent": 1, "stable assay Renilla, run 1": 7451, "stable assay firefly, run 1": 5.04e5, "outcome": "inactive"}
{"gene knocked down": "Papst2", "reagent": 1, "stable assay Renilla, run 1": 8566, "stable assay firefly, run 1": 2.87e5, "outcome": "inactive"}
{"gene knocked down": "Nt5c", "reagent": 1, "stable assay Renilla, run 1": 9130, "stable assay firefly, run 1": 6.20e5, "outcome": "inactive"}
{"gene knocked down": "CG5521", "reagent": 1, "stable assay Renilla, run 1": 6303, "stable assay firefly, run 1": 4.30e5, "outcome": "inactive"}
{"gene knocked down": "CG18417", "reagent": 1, "stable assay Renilla, run 1": 6134, "stable assay firefly, run 1": 3.67e5, "outcome": "inactive"}
{"gene knocked down": "rols", "reagent": 1, "stable assay Renilla, run 1": 5914, "stable assay firefly, run 1": 3.33e5, "outcome": "inactive"}
{"gene knocked down": "rols", "reagent": 2, "stable assay Renilla, run 1": 5770, "stable assay firefly, run 1": 3.01e5, "outcome": "inactive"}
{"gene knocked down": "rols", "reagent": 3, "stable assay Renilla, run 1": 5394, "stable assay firefly, run 1": 3.51e5, "outcome": "inactive"}
{"gene knocked down": "CG14314", "reagent": 1, "stable assay Renilla, run 1": 6570, "stable assay firefly, run 1": 2.82e5, "outcome": "inactive"}
{"gene knocked down": "CG3345", "reagent": 1, "stable assay Renilla, run 1": 11221, "stable assay firefly, run 1": 6.26e5, "outcome": "inactive"}
{"gene knocked down": "p120ctn", "reagent": 1, "stable assay Renilla, run 1": 6099, "stable assay firefly, run 1": 3.03e5, "outcome": "inactive"}
{"gene knocked down": "AspRS", "reagent": 1, "stable assay Renilla, run 1": 7662, "stable assay firefly, run 1": 3.61e5, "outcome": "inactive"}
{"gene knocked down": "CG10555", "reagent": 1, "stable assay Renilla, run 1": 4590, "stable assay firefly, run 1": 1.90e5, "outcome": "inactive"}
{"gene knocked down": "CG10555", "reagent": 2, "stable assay Renilla, run 1": 3628, "stable assay firefly, run 1": 3.49e5, "outcome": "inactive"}
{"gene knocked down": "CG31495", "reagent": 1, "stable assay Renilla, run 1": 6848, "stable assay firefly, run 1": 2.98e5, "outcome": "inactive"}
{"gene knocked down": "lncRNA:bxd", "reagent": 1, "stable assay Renilla, run 1": 4092, "stable assay firefly, run 1": 3.07e5, "outcome": "inactive"}
{"gene knocked down": "RNaseP:RNA", "reagent": 1, "stable assay Renilla, run 1": 5864, "stable assay firefly, run 1": 5.43e5, "outcome": "inactive"}
{"gene knocked down": "Tm1", "reagent": 1, "stable assay Renilla, run 1": 3704, "stable assay firefly, run 1": 3.07e5, "outcome": "inactive"}
{"gene knocked down": "Tm1", "reagent": 2, "stable assay Renilla, run 1": 3864, "stable assay firefly, run 1": 4.09e5, "outcome": "inactive"}
{"gene knocked down": "Tm1", "reagent": 3, "stable assay Renilla, run 1": 8093, "stable assay firefly, run 1": 4.74e5, "outcome": "inactive"}

As entered above:
Value of CG3345 in “stable assay firefly, run 1”: 6.26e5
Polr1H, stable assay firefly, run 1: 4.61e5
Under “outcome”, Tm1 #3 has inactive
Papst2, stable assay Renilla, run 1: 8566
